# From PubChem BioAssay (EPA / NIEHS)
# Where “and” joins values, the source holds several entries; their conditions need not be identical. Equal values may be shown once. This list was built around the results that the source calls inconclusive (neither active nor inactive); the mix of calls is not that of the screen. Potencies of inconclusive entries are doubtful fits and often do not repeat. Calls of active or inactive are those of the source. The calls were made as follows: active = hit-call score of the fitted dose curve at least 0.9, where 1 is the maximum; inconclusive = response in the unintended direction; inactive = score below 0.9.
# Assay: ATG_M_19_XSP2: Attagene TRANS-FACTORIAL Multi-Species (XSP2) HepG2 Assay for M32 Transcription Factor (Internal Marker) (AID 2283822)
# Experimental: ATG_XSP2_multi-species_TRANS is a cell-based, multiplexed assay created by modifying the existing Attagene TRANS-FACTORIAL system to include a panel of nuclear receptors from some or all the following species: human (Homo sapiens), mouse (Mus musculus), frog (Xenopus laevis), zebrafish (Danio rerio), chicken (Gallus gallus), and turtle (Chrysemys picta). The ECOTOX-FACTORIAL format uses HepG2, a human liver cell line, with measurements taken at 24 hours after chemical dosing in a 24-well plate. Xsp2 included 3 nM 6-alpha-fluorotestosterone and 1.5 nM norgestrel to stimulate the androgen receptor.ATG_M_19_XSP2 is one of 29 assay components measured or calculated from the ATG_XSP2_multi-species_TRANS assay. It is designed to make measurements of mRNA induction, a form of inducible reporter, as detected with fluorescence intensity signals by Reverse transcription polymerase chain reaction (RT-PCR) and Capillary electrophoresis technology.This assay endpoint, ATG_M_19_XSP2, was analyzed in the positive analysis fitting direction relative to DMSO as the negative control and baseline of activity. Using a type of inducible reporter, measures of mRNA for gain-of-signal activity can be used to understand the background control at the transcription factor-level as they relate to the gene. Furthermore, this assay endpoint can be referred to as a secondary readout, because this assay has produced multiple assay endpoints where this one serves a background control function. To generalize the intended target to other relatable targets, this assay endpoint is annotated to the background measurement intended target family, where the subfamily is internal marker.
# Human liver HepG2 cells are transiently transfected with multiple reporter transcription units (MRTUs) in 6-well plates using FuGene 6 reagent (Roche; 3 ml FuGene/1 mg DNA). The MRTU constructs are regulated by a cis-regulating element (promoter). […] A major difference between the CIS and TRANS system is that in CIS activities of endogenous TFs are measured, whereas the TRANS assay evaluates changes in activities of exogenous, chimeric NR-Gal4 proteins. […] At the end of 24 hour incubation, total RNA was isolated using TriZol reagent (Invitrogen). The isolated RNA is then reverse-transcribed using oligo(dT) primer and Mo-MLV reverse transcriptase (Invitrogen) with DNAse I (Ambion) treatment for 30 min. The one-tenth of the produced cDNA was amplified by PCR using Taq DNA polymerase (Invitrogen) and two reporter sequence-specific primers. The PCR products were fluorescently labeled by primer extension with 6-arboxyfluorescein (6-FAM) 5'-labeled reporter sequence-specific primer (2 min at 95 C, 20 s at 68 C and 10 min at 72 C) and these products were digested with 5U of HpaI (New England Biolabs) for 2h at 37 C. The fragments were purified using Qiaquick PCR columns (Qiagen), analyzed on an ABI 3130xL genetic analyzer (Applied Biosystems) with peak positions identified by using a set of X-rhodamine (ROX)-labeled MapMarker1000 molecular weight standards (BioVentures). The raw capillary electrophoresis data was processed using Attagraph software (Attagene).
Compound,outcome,AC50
Oc1cc2ccccc2c2ccccc12,inactive,–
CC(CCC(=O)O)(c1ccc(O)cc1)c1ccc(O)cc1,–,inconclusive: 53.1 µM
O=C(c1ccccc1)c1ccc(O)cc1O,–,inconclusive: 10 µM
N#Cc1ccc(C2CCCc3cncn32)cc1 (stereo not given),–,inconclusive: 50 µM
CC1(C)C(C=C(Cl)Cl)C1C(=O)OCc1cccc(Oc2ccccc2)c1 (stereo not given),inactive,–
C(=C(c1ccccc1)c1ccccc1)c1ccccc1,–,inconclusive: 1 µM
CCC(C)(C)C1CCC(O)CC1 (stereo not given),inactive,–
c1ccc(B(c2ccccc2)c2ccccc2)cc1,–,inconclusive: 27.1 µM
CCCCCC(=O)O[C@]1(C(C)=O)CC[C@H]2[C@@H]3CCC4=CC(=O)CC[C@]4(C)[C@H]3CC[C@@]21C,–,inconclusive: 30.4 µM
C#C[C@]1(O)CC[C@H]2[C@@H]3CCc4cc(OC)ccc4[C@H]3CC[C@@]21C,–,inconclusive: 0.00579 µM
CCCCCCCCOC(=O)c1ccc(O)cc1,–,inconclusive: 56.6 µM
CCCOC(=O)c1ccc(O)cc1,–,inconclusive: 100 µM
Cc1c2ccccc2c(C)c2c1ccc1ccccc12,–,inconclusive: 33.4 µM
O=c1cc(-c2ccc(O)cc2)oc2cc(O)cc(O)c12,–,inconclusive: 3.32 µM
Oc1ccc(-c2ccccc2)c(Cl)c1,inactive,–
CN(C)C(=O)Nc1ccc(Cl)c(Cl)c1,–,inconclusive: 51.9 µM
CC(C)(c1ccc(O)cc1)c1ccc(O)cc1,–,inconclusive: 10 µM

Compound,outcome,AC50
CC(C)C(=O)Nc1ccc([N+](=O)[O-])c(C(F)(F)F)c1,–,inconclusive: 100 µM
CC[C@H](c1ccc(O)cc1)[C@@H](CC)c1ccc(O)cc1,–,inconclusive: 0.0268 µM
C[C@]12CC[C@H]3C(=CCc4cc(O)ccc43)[C@@H]1CCC2=O,–,inconclusive: 0.263 µM
O=C(O)Cc1cc(I)c(Oc2cc(I)c(O)c(I)c2)c(I)c1,–,inconclusive: 0.168 µM
COC(=O)c1c(C)cc(O)c(C)c1O,inactive,–
Cc1c(C)c2c(c(C)c1O)CCC(C)(COc1ccc(CC3SC(=O)NC3=O)cc1)O2 (stereo not given),–,inconclusive: 2.6 µM
CSC(=O)c1cccc2nnsc12,–,inconclusive: 100 µM
COc1ccc(-c2coc3cc(O)cc(O)c3c2=O)cc1,–,inconclusive: 10 µM
C=C1C[C@H]2[C@@H]3C=C(C)C4=CC(=O)CC[C@]4(C)[C@H]3CC[C@]2(C)[C@@]1(OC(C)=O)C(C)=O,inactive,–
CCCCCCCCCCCCc1ccc(O)cc1,–,inconclusive: 1 µM
O=c1c(-c2ccc(O)cc2)coc2cc(O)ccc12,–,inconclusive: 2.73 µM
N[C@@H](Cc1cc(I)c(Oc2ccc(O)c(I)c2)c(I)c1)C(=O)O,–,inconclusive: 0.00203 µM
CC(=O)S[C@@H]1CC2=CC(=O)CC[C@]2(C)[C@H]2CC[C@@]3(C)[C@@H](CC[C@@]34CCC(=O)O4)[C@H]12,inactive,–
O=C(c1ccc(O)cc1O)c1ccc(O)cc1O,–,inconclusive: 10 µM
COc1ccc(C(=O)c2ccccc2)c(O)c1,–,inconclusive: 183 µM
C#C[C@]1(O)CC[C@H]2[C@@H]3CCC4=CC(=O)CC[C@@H]4[C@H]3CC[C@@]21C,inactive,–
C=CCOC(=O)c1ccccc1C(=O)OCC=C,–,inconclusive: 24.5 µM

# Three entries already listed, sorted by molar mass, ascending.
Compound,outcome,AC50
CCCCCCCCCCCCc1ccc(O)cc1,–,inconclusive: 1 µM
C[C@]12CC[C@H]3C(=CCc4cc(O)ccc43)[C@@H]1CCC2=O,–,inconclusive: 0.263 µM
COc1ccc(-c2coc3cc(O)cc(O)c3c2=O)cc1,–,inconclusive: 10 µM
